# Microarray screen: hit calls

Targets, with sequences 5′ to 3′:
T1: SAM-II riboswitch RNA pseudoknot, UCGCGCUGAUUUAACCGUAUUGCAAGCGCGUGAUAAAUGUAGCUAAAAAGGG. About 21,000 compounds screened, about 200 hits.
T2: TPP riboswitch RNA three-way junction, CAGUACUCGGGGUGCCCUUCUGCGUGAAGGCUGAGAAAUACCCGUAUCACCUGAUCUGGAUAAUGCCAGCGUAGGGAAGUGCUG. About 24,000 compounds screened, about 160 hits.
T3: PreQ1 riboswitch RNA pseudoknot, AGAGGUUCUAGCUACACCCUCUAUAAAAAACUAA. From B. subtilis. About 24,000 compounds screened, about 170 hits.

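The test is a small-molecule microarray: each compound is printed twice on a reactive slide, and binding shows as fluorescence of the labelled oligonucleotide after washing. For the PreQ1, TPP and SAM-II riboswitches the laboratory earlier reported (doi:10.1038/s41467-019-09493-3) 1 µM RNA, 2 h, and a rule that included a mean Z-score above 3 (spot signal-to-noise against the whole library), a score well above that on a control array, and duplicate spots agreeing (coefficient of variation under 100). The data file gives only the calls; its cut-offs may differ, and compounds hitting several targets are kept. A missing hit is not proof of no binding, and a hit is not a measured affinity.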
A compound is marked hit if it was called a hit and no hit if it was screened but was not.
Compounds were drawn at random from those tested, without regard to their results.
A target missing from an entry has no call listed here.
A dash means that no call is listed here.

| # | SMILES | T1 | T2 | T3 |
|---|---|---|---|---|
| 1 | `COCCn1cnnc1CCNC(=O)c1cccc(NCC(=O)O)c1` | no hit | no hit | no hit |
| 2 | `Nc1cccc(C(=O)NCc2ccco2)c1` | no hit | no hit | no hit |
| 3 | `CC[C@@]1(O)CCN(C(=O)c2cnc(N3CCCCC3)nc2C)C[C@H]1O` | no hit | no hit | no hit |
| 4 | `CN(Cc1cc2n(n1)CCNC2)Cc1nc2ccsc2c(=O)[nH]1` | no hit | no hit | no hit |
| 5 | `CN1c2ccccc2C2=C(C(c3ccc(Cl)cc3)C(C#N)=C(N)O2)S1(=O)=O` (stereo not given) | - | no hit | no hit |
| 6 | `COc1ccc(CNc2nc3c(C)cccc3cc2-c2noc(C(C)C)n2)cc1OC` | - | no hit | no hit |
| 7 | `CC(C)(C)c1ccc(NS(=O)(=O)c2ccc(N)cc2)cc1` | no hit | no hit | no hit |
| 8 | `OCCC1CCCN1Cc1cc2cc3c(cc2nc1-c1ccc(Cl)cc1)OCO3` (stereo not given) | no hit | no hit | no hit |
| 9 | `N#CC1=C(N)Oc2c(oc(CO)cc2=O)C1c1cccc(Cl)c1` (stereo not given) | no hit | no hit | no hit |
| 10 | `CC(=O)c1cc(C(=O)N2CCC3(CCC(=O)N(CCO)C3)CC2)cs1` | no hit | no hit | no hit |
| 11 | `CCOC(=O)C1=C(N)OC(C)=C(C(=O)OCc2ccccc2)C12C(=O)Nc1ccccc12` (stereo not given) | no hit | no hit | no hit |
| 12 | `Cc1cc(C)n(CCNC(C)CN2CCOCC2)c(=O)n1` (stereo not given) | no hit | no hit | no hit |
| 13 | `CN(C)c1ccccc1-c1nc(CC(N)=O)nn1CCO` | no hit | no hit | no hit |
| 14 | `OCc1nnn(-c2ccncc2)c1CO` | no hit | no hit | no hit |
| 15 | `COCCNc1nc2c(c(N3CCNC(=O)C3)n1)CCNCC2` | no hit | no hit | no hit |
| 16 | `CCC(C)Nc1nc(-c2ccccc2O)nc2ccccc12` (stereo not given) | no hit | no hit | no hit |
| 17 | `O[C@@H]1CN(Cc2cncn2Cc2ccccc2)CC[C@H]1c1ccc(F)cc1` | no hit | no hit | no hit |
| 18 | `CCC(CO)NC(=O)c1ccc(-c2nn(C)c(=O)c3ccccc23)cc1` (stereo not given) | no hit | no hit | no hit |
| 19 | `Fc1ccc(-c2noc3ncnc(NCCc4ccsc4)c23)cc1` | - | no hit | no hit |
| 20 | `O=C(O)c1c(CNCc2cccnc2)c2ccccc2n1Cc1ccccc1` | - | no hit | no hit |
| 21 | `COc1cc(C(=O)C(=O)c2cc(OC)c(O)c(OC)c2)cc(OC)c1O` | no hit | no hit | no hit |
| 22 | `OCC#CCN1CCCCC1c1cccnc1` (stereo not given) | no hit | no hit | no hit |
| 23 | `O=C(c1cnc(-c2cccs2)nc1)N1CCC(N2CCCC(O)C2)CC1` (stereo not given) | no hit | no hit | no hit |
| 24 | `COc1ccccc1C1(CCNCc2ccc3c(c2)OCO3)CCOC(C)(C)C1` (stereo not given) | - | no hit | no hit |
| 25 | `Cc1ccc(Nc2nc3ccccc3n3c(C)nnc23)cc1Cl` | no hit | no hit | no hit |
| 26 | `CC(C)n1c(C=C[C@H](O)C[C@H](O)CC(=O)[O-])c(-c2ccc(F)cc2)c2ccccc21` | no hit | no hit | no hit |
| 27 | `CCCc1nc(NC(=O)c2ccccc2)nc(NC(=O)c2ccccc2)n1` | no hit | no hit | no hit |
| 28 | `Cc1ccc(S(=O)(=O)N(C)C)cc1[N+](=O)[O-]` | no hit | no hit | no hit |
| 29 | `O=c1cc(N2CCOCC2)oc2c(-c3ccccc3)cccc12` | no hit | no hit | no hit |
| 30 | `CCOC(=O)N1CCC(NCc2nc(C)c3c(n2)CCCC3)CC1` | no hit | no hit | no hit |
| 31 | `COCCNc1oc(-c2ccccc2)nc1S(=O)(=O)c1ccc(F)cc1` | - | no hit | no hit |
| 32 | `Cl.Cl.Clc1ccc(Nc2nnc(Cc3ccncc3)c3ccccc23)cc1` | no hit | no hit | no hit |
| 33 | `Cc1cc2c(c(=O)o1)C(c1ccccc1F)C(C#N)=C(N)O2` (stereo not given) | no hit | no hit | no hit |
| 34 | `CSc1ccc(-c2nc(CN3CCOC(CN)C3)c(C)o2)cc1` (stereo not given) | no hit | no hit | no hit |
| 35 | `O=C(CC(c1ccccc1)c1ccco1)N1C[C@H]2CC[C@@H](C1)N2` (stereo not given in full) | no hit | no hit | no hit |
| 36 | `Cc1nnc2c3ccccc3nc(Nc3ccc(Br)cc3F)n12` | no hit | no hit | no hit |
| 37 | `COc1cccc(CNCc2cccs2)c1OCc1ccc(F)cc1` | no hit | no hit | no hit |
| 38 | `OC[C@]12COc3ccccc3[C@H]1CN(Cc1nnc(-c3cccnc3)o1)C2` | no hit | no hit | no hit |
| 39 | `NCc1conc1-c1ccc(O)cc1` | no hit | no hit | no hit |
| 40 | `Cc1ccccc1C(=O)Oc1ccc(NC2=NS(=O)(=O)c3ccccc32)cc1` | no hit | no hit | no hit |
| 41 | `Cc1c(Cl)cccc1Nc1c(-c2ccsc2)nc2ncccn12` | no hit | no hit | no hit |
| 42 | `COc1ccc(Cn2ccnc2CO)cc1[N+](=O)[O-].Cl` | no hit | no hit | no hit |
| 43 | `O=C(c1c[nH]c(=O)[nH]c1=O)N1C[C@H](CO)C[C@H](CN2CCOCC2)C1` | no hit | no hit | no hit |
| 44 | `Cc1ccc(-c2cnc(NCc3ccc(C(F)(F)F)cc3)n2C)cc1` | no hit | no hit | no hit |
| 45 | `CCC(O)Cn1nc(C)nc1CSc1ncccn1` (stereo not given) | no hit | no hit | no hit |
| 46 | `O=C(NCc1cccnc1Oc1ccc(F)c(F)c1)[C@H](O)c1ccccc1` | no hit | no hit | no hit |
| 47 | `O=C(O)c1ccc(Nc2nc(-c3ccccc3)cs2)cc1` | no hit | no hit | no hit |
| 48 | `CC(C)c1noc(CCNc2nc(-c3cccnc3)nc3c2CCNC3)n1` | no hit | no hit | no hit |
| 49 | `CN(Cc1cccc(-n2cccn2)c1)C(=O)CCc1csc(N)n1` | no hit | no hit | no hit |
| 50 | `COC(=O)[C@@H](N)CCCN=C(N)N[N+](=O)[O-]` | no hit | no hit | no hit |
| 51 | `CC(=O)c1c(Nc2ccc(Oc3ccccc3)cc2)oc(C)cc1=O` | no hit | no hit | no hit |
| 52 | `Cc1cc(C)n(CC2(CNC(=O)c3cnn4cc(CCO)cnc34)CC2)n1` | no hit | no hit | no hit |
| 53 | `Cc1cc(N2CCN(C(=O)CCc3cc4n(n3)CCNC4)CC2)nc(N)n1` | no hit | no hit | no hit |
| 54 | `Cc1cccc(Nc2c(-c3ccccc3O)nc3cnccn23)c1C` | - | no hit | no hit |
| 55 | `COc1ccc(O)c2c(=O)c3c(OC)cc4c(c3oc12)[C@@H]1C=CO[C@@H]1O4` | no hit | no hit | no hit |
| 56 | `C1COCCN1.N#CC1=C(N)NC(S)=C(C#N)C1c1cccc2ccccc12` (stereo not given) | no hit | no hit | no hit |
| 57 | `c1ccc(CNc2cc(-c3cccc(N4CCNCC4)n3)c3cc[nH]c3n2)nc1` | no hit | no hit | no hit |
| 58 | `Cc1c(C(=O)Nc2ccc(N3C[C@@H](C)O[C@@H](C)C3)nc2)cccc1-c1ccc(OC(F)(F)F)cc1` | no hit | no hit | no hit |
| 59 | `Cc1ccc(C)c(Cn2nnc(C(=O)NCc3ccc(F)cc3)c2N)c1` | no hit | no hit | no hit |
| 60 | `CCCCSc1nc(N)cc(N2CCC(C(=O)N3CCOCC3)CC2)n1` | no hit | no hit | no hit |
| 61 | `Nc1nnc(-c2ccccc2)c(-c2ccccc2)n1` | no hit | no hit | no hit |
| 62 | `CCOc1ccc(CNCCc2ccc(Cl)cc2)cc1` | no hit | no hit | no hit |
| 63 | `COc1ccccc1N1CCN(C(=O)CCc2n[nH]c(N)n2)CC1=O` | no hit | no hit | no hit |
| 64 | `COc1cc(CNCCc2c[nH]c3ccccc23)cc(Cl)c1OCC(N)=O` | no hit | no hit | no hit |
| 65 | `Cc1ccccc1NC(=O)c1nnn(CC(=O)Nc2ccccc2)c1N` | no hit | no hit | no hit |
| 66 | `Cn1cnc2c1c(=O)[nH]c(=O)n2C` | no hit | no hit | no hit |

For reference, 7 entries once more:

{"smiles": "Cc1cc(C)n(CCNC(C)CN2CCOCC2)c(=O)n1", "stereo": "stereo not given", "T1": "no hit", "T2": "no hit", "T3": "no hit"}
{"smiles": "CCOC(=O)C1=C(N)OC(C)=C(C(=O)OCc2ccccc2)C12C(=O)Nc1ccccc12", "stereo": "stereo not given", "T1": "no hit", "T2": "no hit", "T3": "no hit"}
{"smiles": "CCCc1nc(NC(=O)c2ccccc2)nc(NC(=O)c2ccccc2)n1", "T1": "no hit", "T2": "no hit", "T3": "no hit"}
{"smiles": "Fc1ccc(-c2noc3ncnc(NCCc4ccsc4)c23)cc1", "T2": "no hit", "T3": "no hit"}
{"smiles": "Cc1ccc(S(=O)(=O)N(C)C)cc1[N+](=O)[O-]", "T1": "no hit", "T2": "no hit", "T3": "no hit"}
{"smiles": "c1ccc(CNc2cc(-c3cccc(N4CCNCC4)n3)c3cc[nH]c3n2)nc1", "T1": "no hit", "T2": "no hit", "T3": "no hit"}
{"smiles": "Nc1nnc(-c2ccccc2)c(-c2ccccc2)n1", "T1": "no hit", "T2": "no hit", "T3": "no hit"}

Data from the ROBIN nucleic acid binder screens, doi:10.1002/anie.202211358.